PubChem BioAssay AID504791 – Drosophila RNAi Screening Center, 2011

- Assay: 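Genes of the fly required for silencing by miRNA, siRNA or endo-siRNA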 (primary screen)
- Cell system: Drosophila S2-derived reporter cells
- Reagent: long dsRNA against Drosophila genes, about 150-250 ng dsRNA per well (siRNA assay); about 80-120 ng (miRNA assay)
- Timing: about 5 days (siRNA assay); about 4 days (miRNA assay)
- Challenge: copper sulfate induction of reporters: 25 µM (siRNA assay); 200 mM stated (miRNA assay), 1-2 days before reading
- Measurement: 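Dual luciferase assay: Renilla to firefly signal ratio in each well, scaled to the mean ratio of its plate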
- Active means: 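First-pass picks had plate-scaled ratios over 1.5 for the siRNA assay, over 1.6 for the miRNA assay, or under 0.6; two distinct dsRNAs had to score alike on retest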
In all, the deposit lists about 23,000 reagents; shown is a random part of those with a known target gene and a result. Over the whole deposit, 199 (0.86%) are marked active. 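Plate-scaled ratios behind the calls are not deposited; printed light signals are raw; many rows marked increased or decreased are still called inactive.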 A plus sign joins genes that one reagent is predicted to hit. Reagent sequences are not shown. The record does not give: the direction of the score.

no.	gene	dsRNA	stable siRNA reporter change	miRNA reporter change	stable assay Renilla, run 1 (luminescence)	stable assay firefly, run 1 (luminescence)	call
1	azot	DRSC06051			6639	4.92e5	inactive
2	CG12607	DRSC08287			6238	6.19e5	inactive
3	CR15280	DRSC01953			6682	4.57e5	inactive
4	Sobp	DRSC07312			7599	3.77e5	inactive
5	Pura	DRSC08891			4535	3.43e5	inactive
6	Pura	DRSC10862			6103	3.73e5	inactive
7	Pura	DRSC10864			5862	3.29e5	inactive
8	Pura	DRSC10865			6199	3.59e5	inactive
9	Pura	DRSC10866			5135	3.53e5	inactive
10	Fdh	DRSC16670			7754	3.77e5	inactive
11	Oseg5	DRSC03209			7599	4.20e5	inactive
12	CG31551	DRSC12159			4867	3.27e5	inactive
13	CG31551	DRSC22403			3812	3.90e5	inactive
14	GstE9	DRSC06679			4587	2.47e5	inactive
15	CG31643	DRSC00906			4599	4.02e5	inactive
16	CG14069	DRSC02372			6883	4.12e5	inactive
17	CG33257	DRSC09917			7931	3.73e5	inactive
18	CG31663	DRSC00078			5151	3.93e5	inactive
19	CG31663	DRSC00389			13679	8.09e5	inactive
20	CG31663	DRSC00390			4027	4.36e5	inactive
21	CG31663	DRSC00393			7930	5.02e5	inactive
22	CG43328	DRSC05640			7419	4.74e5	inactive
23	scat	DRSC02722			7370	7.75e5	inactive
24	Sol1	DRSC15263			7195	3.70e5	inactive
25	Sol1	DRSC15271			6176	3.38e5	inactive
26	Sol1	DRSC15681			6975	4.53e5	inactive
27	CG7772	DRSC20056			7207	4.62e5	inactive
28	CG14810	DRSC17693			6779	3.32e5	inactive
29	CG14810	DRSC17961			6440	3.96e5	inactive
30	CG12419 (retired record)	DRSC14513			6522	4.84e5	inactive
31	CG32112	DRSC09815			7006	4.21e5	inactive
32	Pgant5	DRSC03149			12863	4.16e5	inactive
33	Taf3	DRSC17170			9157	7.55e5	inactive
34	CG6996	DRSC10758			6998	4.31e5	inactive
35	CG13733	DRSC10061			8274	4.18e5	inactive
36	CG11723	DRSC00324			9705	4.12e5	inactive
37	CG10280	DRSC12133			5546	3.73e5	inactive
38	thetaTry	DRSC07705			6444	3.47e5	inactive
39	dsx	DRSC12649			5811	3.57e5	inactive
40	dsx	DRSC16934			4627	3.41e5	inactive
41	dsx	DRSC21495			7414	4.19e5	inactive
42	mei-41	DRSC20350			4952	4.47e5	inactive
43	CG1529	DRSC20515			4367	4.55e5	inactive
44	CG2901	DRSC18239			6574	5.75e5	inactive
45	Ir84a	DRSC12510			7370	5.00e5	inactive
46	GatB	DRSC15807			6752	3.08e5	inactive
47	CG6753	DRSC16108			6231	4.05e5	inactive
48	CG32591	DRSC19063			4491	3.39e5	inactive
49	5-HT1B	DRSC05031			7442	4.66e5	inactive
50	5-HT1B	DRSC05769			4367	2.40e5	inactive
51	CG7094	DRSC03005			6583	3.59e5	inactive
52	dpr13	DRSC06160			5224	4.12e5	inactive
53	dpr13	DRSC06464			5835	3.93e5	inactive
54	CG42816 + CG42815	DRSC11230			7467	3.94e5	inactive
55	CG40486	DRSC20619			7171	4.00e5	inactive
56	Jhbp1	DRSC12167			7706	4.16e5	inactive
57	Atg101	DRSC20020			5784	3.99e5	inactive
58	mRpL32	DRSC14479			6491	4.91e5	inactive
59	wg	DRSC03636			8079	4.54e5	inactive
60	TM4SF	DRSC04661			16048	1.07e6	inactive
61	CG7506	DRSC10860			8016	5.51e5	inactive
62	GNBP3	DRSC11170			6750	3.90e5	inactive
63	eIF3a	DRSC12339			5067	3.58e5	inactive
64	eIF3a	DRSC28481		reporter ratio lowered past the hit cutoff			inactive
65	egr	DRSC06233			5912	3.50e5	inactive
66	CG14893	DRSC15015			7334	4.98e5	inactive
67	CG12643	DRSC17849			5211	5.01e5	inactive
68	CG42246	DRSC17520	reporter ratio raised past the hit cutoff		8289	3.93e5	inactive
69	Nubp2	DRSC11758			8163	4.53e5	inactive
70	CG8490	DRSC07194			5499	3.69e5	inactive
71	CG2608	DRSC02709			14351	2.21e6	inactive
72	Teh2	DRSC08458			5212	3.35e5	inactive
73	CG14780	DRSC18566			5283	3.17e5	inactive
74	CG34135 + Nasp	DRSC16397			6552	3.62e5	inactive
75	Ak3	DRSC16075			7514	4.78e5	inactive
76	CG34283	DRSC13313			5122	4.59e5	inactive
77	Gp150	DRSC04618			4067	4.08e5	inactive
78	CG12551 (retired record)	DRSC04857			5698	3.79e5	inactive
79	CG12551 (retired record)	DRSC04864			5299	3.37e5	inactive
80	Nepl6	DRSC03242			4231	4.08e5	inactive
81	Nadk1b	DRSC05432			4119	2.94e5	inactive
82	Nadk1b	DRSC06964			7658	4.44e5	inactive
83	Nadk1b	DRSC06965			5535	3.16e5	inactive

Entries above whose target name starts with S or s (5):
gene	dsRNA	stable siRNA reporter change	miRNA reporter change	stable assay Renilla, run 1 (luminescence)	stable assay firefly, run 1 (luminescence)	call
Sobp	DRSC07312			7599	3.77e5	inactive
scat	DRSC02722			7370	7.75e5	inactive
Sol1	DRSC15263			7195	3.70e5	inactive
Sol1	DRSC15271			6176	3.38e5	inactive
Sol1	DRSC15681			6975	4.53e5	inactive
